Measured values published in publication doi:10.1101/2024.07.18.604157.
Results are given in words; binding and its absence hold for the method and conditions named. In cells and extracts the contact can be indirect. Some entries that bind do so weakly or less than the wild type.

T1: WTAP as used in the IP assays against the family of protein phosphatases (PPPs) (UniProt Q15007)
T1 sequence: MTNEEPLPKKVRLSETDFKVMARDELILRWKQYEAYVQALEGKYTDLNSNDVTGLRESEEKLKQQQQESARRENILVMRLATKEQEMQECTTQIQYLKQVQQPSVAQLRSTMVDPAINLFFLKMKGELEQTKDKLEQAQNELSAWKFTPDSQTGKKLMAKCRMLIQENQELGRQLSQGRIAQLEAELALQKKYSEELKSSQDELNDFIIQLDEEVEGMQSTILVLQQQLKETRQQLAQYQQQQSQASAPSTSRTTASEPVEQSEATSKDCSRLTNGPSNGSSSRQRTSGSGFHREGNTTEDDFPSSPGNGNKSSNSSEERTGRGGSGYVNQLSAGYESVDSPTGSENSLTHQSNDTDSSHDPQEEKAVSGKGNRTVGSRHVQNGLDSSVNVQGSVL

T2: Wilm's tumor-associated protein (WTAP), endogenous in THP-1-derived macrophages (human (endogenous in THP-1)) (UniProt Q15007)
T2 sequence: T1 sequence

B1: PPP4 as used in the IP assays of WTAP against the family of protein phosphatases (PPPs) (enzyme, UniProt P60510 1-307)
chain: MAEISDLDRQIEQLRRCELIKESEVKALCAKAREILVEESNVQRVDSPVTVCGDIHGQFYDLKELFRVGGDVPETNYLFMGDFVDRGFYSVETFLLLLALKVRYPDRITLIRGNHESRQITQVYGFYDECLRKYGSVTVWRYCTEIFDYLSLSAIIDGKIFCVHGGLSPSIQTLDQIRTIDRKQEVPHDGPMCDLLWSDPEDTTGWGVSPRGAGYLFGSDVVAQFNAANDIDMICRAHQLVMEGYKWHFNETVLTVWSAPNYCYRCGNVAAILELDEHLQKDFIIFEAAPQETRGIPSKKPVADYFL
B2: PPP4, endogenous in THP-1-derived macrophages (enzyme, UniProt P60510 1-307)
chain: B1 chain

What was measured:
[1] = target: T1, WTAP as used in the IP assays against the family of protein phosphatases (PPPs); assay: co-IP
[2] = target: T2, Wilm's tumor-associated protein (WTAP), endogenous in THP-1-derived macrophages (human (endogenous in THP-1)); assay: co-IP

| Binder | binding [1] | binding [2] |
| --- | --- | --- |
| B1 | binds |  |
| B2 |  | binds |
